The target of one experiment is FLAG-ZBTB24 V43L (human) (UniProt O43167). The experiment can be described thus: co-IP; HEK293T co-transfected with Myc- and FLAG-tagged ZBTB24 plasmids, harvested after 48 h; lysis in 0.5% NP-40, 150 mM NaCl, 50 mM Tris-HCl pH 8.0; IP with anti-FLAG M2 affinity agarose for 1 h at 4°C; elution with 3xFLAG peptide; blot with anti-Myc and anti-FLAG.
Experiment [1] deals with T1, full-length ZBTB24WT (human), O43167.
T1 chain: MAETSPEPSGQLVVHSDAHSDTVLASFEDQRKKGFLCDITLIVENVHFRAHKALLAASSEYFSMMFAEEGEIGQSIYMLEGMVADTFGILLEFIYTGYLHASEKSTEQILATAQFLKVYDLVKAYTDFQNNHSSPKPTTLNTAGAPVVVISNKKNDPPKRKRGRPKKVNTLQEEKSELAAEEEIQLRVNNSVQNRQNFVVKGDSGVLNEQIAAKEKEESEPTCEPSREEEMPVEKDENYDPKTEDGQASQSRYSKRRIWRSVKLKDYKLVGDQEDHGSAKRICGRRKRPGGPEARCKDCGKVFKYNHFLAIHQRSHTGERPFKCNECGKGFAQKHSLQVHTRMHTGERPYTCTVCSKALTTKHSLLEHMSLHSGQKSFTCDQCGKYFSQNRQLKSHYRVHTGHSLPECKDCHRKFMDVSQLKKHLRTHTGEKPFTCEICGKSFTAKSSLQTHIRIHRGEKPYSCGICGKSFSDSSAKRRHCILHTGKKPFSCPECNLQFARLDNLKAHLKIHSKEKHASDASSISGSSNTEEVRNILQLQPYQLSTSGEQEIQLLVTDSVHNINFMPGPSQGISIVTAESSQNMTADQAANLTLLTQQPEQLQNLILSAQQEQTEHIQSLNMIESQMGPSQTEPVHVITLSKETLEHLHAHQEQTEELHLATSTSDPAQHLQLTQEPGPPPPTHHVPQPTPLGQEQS
Described as above. To be noted: remark: other sources report otherwise.

The values below come from paper PMC13158236.

Results are given in words; binding and its absence hold for the method and conditions named. In cells and extracts the contact can be indirect. Some entries that bind do so weakly or less than the wild type.

For the molecule “full-length ZBTB24WT (from UniProt O43167-1 1-697)”, in the experiment with FLAG-ZBTB24 V43L (human), the binding result was “binds”.

B1: full-length ZBTB24WT, O43167-1 1-697 (protein)
chain: T1 chain
Turning to B1, in experiment [1], the binding result is on record as “binds”.
